# According to patent US5252495A, “Immunoassay for physostigmine” (priority 1992, dated 1993):
# At least one compound was matched to its structure with a doubt left.
# What was measured:
# [1] = biological target: Antibody from Diazo-coupled Immunogen; experiment: RIA cross-reactivity: competition with labeled physostigmine for antibody from diazo-coupled immunogen; format: binding, New Zealand white rabbits; details: 1:150, max 1000 ng tested
# Method: (§1) Antibodies to the physostigmine-BSA immunogen were produced by injecting male New Zealand white rabbits with immunogens formed by either method. Prior to injection, the immunogen was emulsified with an equal volume of complete Freund's adjuvant, purchased from Difco Laboratories of Detroit, Mich. The initial immunization consisted of 0.8 mg of protein injected intracutaneously in multiple dorsal sites of the rabbits. Booster injections containing 0.8 mg of immunogen and incomplete Freund's adjuvant were administered every two months for the next six months. Antisera was collected one week after each booster injection from the central ear vein. The blood was allowed to clot at room temperature and then centrifuged at 1500×g for 15 minutes. The separated serum was stored frozen at -20° C. until assayed for the presence of physostigmine antibody.
# (§2) In the assay procedure ^3 H-Physostigmine having specificity of 19.0 Ci/mmole and purchased from the Amersham Corp. of Arlington Heights, Ill., was used as tracer. […] Both standard and sample tubes were always analyzed in duplicate. […]
# (§3) The radioactivity which was bound to the antibody was determined in counts per minute with a Beckman LS-3133P Liquid Scintillation Counter. […] Concentrations of physostigmine in unknown samples were determined according to conventional calculations from the standard curve. […]
# [2] = biological target: Antibody from Mannich Immunogen; experiment: RIA cross-reactivity: competition with labeled physostigmine for antibody from Mannich immunogen; format: binding, New Zealand white rabbits; details: 1:100, max 1000 ng tested
# Method: as §1, §2, §3
# acetylcholinesterase = details: cited from earlier work
structure (smiles),measurement,setting,value
CC(=O)OCC[N+](C)(C)C [Acetylcholine],IC50 (50% inhibition of binding of 3H-physostigmine),[1],> 1000 ng
same,IC50 (50% inhibition of binding of 3H-physostigmine),[2],> 1000 ng
same,molecules of acetylcholine hydrolyzed by one molecule of the enzyme per minute,acetylcholinesterase,3×10^5 molecules per minute
